Experimental findings from publication PMC6316800 are described below.

Chains of the proteins cited; added tags and fusions are not shown.
UniProt P03496: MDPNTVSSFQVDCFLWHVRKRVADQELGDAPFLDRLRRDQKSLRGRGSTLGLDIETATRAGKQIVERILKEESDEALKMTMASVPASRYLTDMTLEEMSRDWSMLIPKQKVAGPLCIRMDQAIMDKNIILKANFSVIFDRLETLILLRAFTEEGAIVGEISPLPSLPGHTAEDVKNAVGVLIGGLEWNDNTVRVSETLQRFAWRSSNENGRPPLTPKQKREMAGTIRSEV

No constants are given. Whether binding was seen depends on the method and setting. Binding seen in cells or lysates may run through a third protein. Here binding means that the protein was enriched with, or labelled near, the bait; the list need not be complete.

The experiment concerns the target Influenza A virus non-structural protein 1 (NS1), strain A/Puerto Rico/8/1934(H1N1) (Influenza A virus A/Puerto Rico/8/1934(H1N1)) (UniProt P03496). As to the kind of experiment: affinity purification with mass spectrometry.

B1: Ribosome-binding protein 1 (protein, UniProt Q9P2E9 1-1410)
chain: MDIYDTQTLGVVVFGGFMVVSAIGIFLVSTFSMKETSYEEALANQRKEMAKTHHQKVEKKKKEKTVEKKGKTKKKEEKPNGKIPDHDPAPNVTVLLREPVRAPAVAVAPTPVQPPIIVAPVATVPAMPQEKLASSPKDKKKKEKKVAKVEPAVSSVVNSIQVLTSKAAILETAPKEVPMVVVPPVGAKGNTPATGTTQGKKAEGTQNQSKKAEGAPNQGRKAEGTPNQGKKTEGTPNQGKKAEGTPNQGKKAEGTPNQGKKAEGAQNQGKKVDTTPNQGKKVEGAPTQGRKAEGAQNQAKKVEGAQNQGKKAEGAQNQGKKGEGAQNQGKKAEGAQNQGKKAEGAQNQGKKAEGAQNQGKKAEGAQNQGKKAEGAQNQGKKAEGAQNQGKKVEGAQNQGKKAEGAQNQGKKAEGAQNQGKKAEGAQNQGKKAEGAQNQGKKAEGAQNQGKKAEGAQNQGKKAEGAQNQGKKVEGAQNQGKKAEGAQNQGKKAEGAQNQGKKAEGAQNQGQKGEGAQNQGKKTEGAQGKKAERSPNQGKKGEGAPIQGKKADSVANQGTKVEGITNQGKKAEGSPSEGKKAEGSPNQGKKADAAANQGKKTESASVQGRNTDVAQSPEAPKQEAPAKKKSGSKKKGEPGPPDADGPLYLPYKTLVSTVGSMVFNEGEAQRLIEILSEKAGIIQDTWHKATQKGDPVAILKRQLEEKEKLLATEQEDAAVAKSKLRELNKEMAAEKAKAAAGEAKVKKQLVAREQEITAVQARMQASYREHVKEVQQLQGKIRTLQEQLENGPNTQLARLQQENSILRDALNQATSQVESKQNAELAKLRQELSKVSKELVEKSEAVRQDEQQRKALEAKAAAFEKQVLQLQASHRESEEALQKRLDEVSRELCHTQSSHASLRADAEKAQEQQQQMAELHSKLQSSEAEVRSKCEELSGLHGQLQEARAENSQLTERIRSIEALLEAGQARDAQDVQASQAEADQQQTRLKELESQVSGLEKEAIELREAVEQQKVKNNDLREKNWKAMEALATAEQACKEKLLSLTQAKEESEKQLCLIEAQTMEALLALLPELSVLAQQNYTEWLQDLKEKGPTLLKHPPAPAEPSSDLASKLREAEETQSTLQAECDQYRSILAETEGMLRDLQKSVEEEEQVWRAKVGAAEEELQKSRVTVKHLEEIVEKLKGELESSDQVREHTSHLEAELEKHMAAASAECQNYAKEVAGLRQLLLESQSQLDAAKSEAQKQSDELALVRQQLSEMKSHVEDGDIAGAPASSPEAPPAEQDPVQLKTQLEWTEAILEDEQTQRQKLTAEFEEAQTSACRLQEELEKLRTAGPLESSETEEASQLKERLEKEKKLTSDLGRAATRLQELLKTTQEQLAREKDTVKKLQEQLEKAEDGSSSKEGTSV
With B1, the binding entry was “binds”.

B2: U3 small nucleolar RNA-interacting protein 2 (protein, UniProt O43818 1-475)
chain: MSATAAARKRGKPASGAGAGAGAGKRRRKADSAGDRGKSKGGGKMNEEISSDSESESLAPRKPEEEEEEELEETAQEKKLRLAKLYLEQLRQQEEEKAEARAFEEDQVAGRLKEDVLEQRGRLQKLVAKEIQAPASADIRVLRGHQLSITCLVVTPDDSAIFSAAKDCSIIKWSVESGRKLHVIPRAKKGAEGKPPGHSSHVLCMAISSDGKYLASGDRSKLILIWEAQSCQHLYTFTGHRDAVSGLAFRRGTHQLYSTSHDRSVKVWNVAENSYVETLFGHQDAVAALDALSRECCVTAGGRDGTVRVWKIPEESQLVFYGHQGSIDCIHLINEEHMVSGADDGSVALWGLSKKRPLALQREAHGLRGEPGLEQPFWISSVAALLNTDLVATGSHSSCVRLWQCGEGFRQLDLLCDIPLVGFINSLKFSSSGDFLVAGVGQEHRLGRWWRIKEARNSVCIIPLRRVPVPPAAGS
In the case of B2, the binding entry is recorded as “binds”.

B3: Ribosomal RNA processing protein 1 homolog A (protein, UniProt P56182 1-461)
chain: MVSRVQLPPEIQLAQRLAGNEQVTRDRAVRKLRKYIVARTQRAAGGFTHDELLKVWKGLFYCMWMQDKPLLQEELGRTISQLVHAFQTTEAQHLFLQAFWQTMNREWTGIDRLRLDKFYMLMRMVLNESLKVLKMQGWEERQIEELLELLMTEILHPSSQAPNGVKSHFIEIFLEELTKVGAEELTADQNLKFIDPFCRIAARTKDSLVLNNITRGIFETIVEQAPLAIEDLLNELDTQDEEVASDSDESSEGGERGDALSQKRSEKPPAGSICRAEPEAGEEQAGDDRDSGGPVLQFDYEAVANRLFEMASRQSTPSQNRKRLYKVIRKLQDLAGGIFPEDEIPEKACRRLLEGRRQKKTKKQKRLLRLQQERGKGEKEPPSPGMERKRSRRRGVGADPEARAEAGEQPGTAERALLRDQPRGRGQRGARQRRRTPRPLTSARAKAANVQEPEKKKKRRE
For B3, the binding entry is “binds”.

B4: RRP12-like protein (protein, UniProt Q5JTH9 1-1297)
chain: MGRSGKLPSGVSAKLKRWKKGHSSDSNPAICRHRQAARSRFFSRPSGRSDLTVDAVKLHNELQSGSLRLGKSEAPETPMEEEAELVLTEKSSGTFLSGLSDCTNVTFSKVQRFWESNSAAHKEICAVLAAVTEVIRSQGGKETETEYFAALMTTMEAVESPESLAAVAYLLNLVLKRVPSPVLIKKFSDTSKAFMDIMSAQASSGSTSVLRWVLSCLATLLRKQDLEAWGYPVTLQVYHGLLSFTVHPKPKIRKAAQHGVCSVLKGSEFMFEKAPAHHPAAISTAKFCIQEIEKSGGSKEATTTLHMLTLLKDLLPCFPEGLVKSCSETLLRVMTLSHVLVTACAMQAFHSLFHARPGLSTLSAELNAQIITALYDYVPSENDLQPLLAWLKVMEKAHINLVRLQWDLGLGHLPRFFGTAVTCLLSPHSQVLTAATQSLKEILKECVAPHMADIGSVTSSASGPAQSVAKMFRAVEEGLTYKFHAAWSSVLQLLCVFFEACGRQAHPVMRKCLQSLCDLRLSPHFPHTAALDQAVGAAVTSMGPEVVLQAVPLEIDGSEETLDFPRSWLLPVIRDHVQETRLGFFTTYFLPLANTLKSKAMDLAQAGSTVESKIYDTLQWQMWTLLPGFCTRPTDVAISFKGLARTLGMAISERPDLRVTVCQALRTLITKGCQAEADRAEVSRFAKNFLPILFNLYGQPVAAGDTPAPRRAVLETIRTYLTITDTQLVNSLLEKASEKVLDPASSDFTRLSVLDLVVALAPCADEAAISKLYSTIRPYLESKAHGVQKKAYRVLEEVCASPQGPGALFVQSHLEDLKKTLLDSLRSTSSPAKRPRLKCLLHIVRKLSAEHKEFITALIPEVILCTKEVSVGARKNAFALLVEMGHAFLRFGSNQEEALQCYLVLIYPGLVGAVTMVSCSILALTHLLFEFKGLMGTSTVEQLLENVCLLLASRTRDVVKSALGFIKVAVTVMDVAHLAKHVQLVMEAIGKLSDDMRRHFRMKLRNLFTKFIRKFGFELVKRLLPEEYHRVLVNIRKAEARAKRHRALSQAAVEEEEEEEEEEEPAQGKGDSIEEILADSEDEEDNEEEERSRGKEQRKLARQRSRAWLKEGGGDEPLNFLDPKVAQRVLATQPGPGRGRKKDHGFKVSADGRLIIREEADGNKMEEEEGAKGEDEEMADPMEDVIIRNKKHQKLKHQKEAEEEELEIPPQYQAGGSGIHRPVAKKAMPGAEYKAKKAKGDVKKKGRPDPYAYIPLNRSKLNRRKKMKLQGQFKGLVKAARRGSQVGHKNRRKDRRP
On to B4, for which the binding result is “binds”.

B5: Ribosomal RNA-processing protein 7 homolog A (protein, UniProt Q9Y3A4 1-280)
chain: MVARRRKCAARDPEDRIPSPLGYAAIPIKFSEKQQASHYLYVRAHGVRQGTKSTWPQKRTLFVLNVPPYCTEESLSRLLSTCGLVQSVELQEKPDLAESPKESRSKFFHPKPVPGFQVAYVVFQKPSGVSAALALKGPLLVSTESHPVKSGIHKWISDYADSVPDPEALRVEVDTFMEAYDQKIAEEEAKAKEEEGVPDEEGWVKVTRRGRRPVLPRTEAASLRVLERERRKRSRKELLNFYAWQHRESKMEHLAQLRKKFEEDKQRIELLRAQRKFRPY
On to B5, for which the binding entry was “binds”.

B6: Ribosome biogenesis regulatory protein homolog (protein, UniProt Q15050 1-365)
chain: MEGQSVEELLAKAEQDEAEKLQRITVHKELELQFDLGNLLASDRNPPTGLRCAGPTPEAELQALARDNTQLLINQLWQLPTERVEEAIVARLPEPTTRLPREKPLPRPRPLTRWQQFARLKGIRPKKKTNLVWDEVSGQWRRRWGYQRARDDTKEWLIEVPGNADPLEDQFAKRIQAKKERVAKNELNRLRNLARAHKMQLPSAAGLHPTGHQSKEELGRAMQVAKVSTASVGRFQERLPKEKVPRGSGKKRKFQPLFGDFAAEKKNQLELLRVMNSKKPQLDVTRATNKQMREEDQEEAAKRRKMSQKGKRKGGRQGPGGKRKGGPPSQGGKRKGGLGGKMNSGPPGLGGKRKGGQRPGGKRRK
In the case of B6, the binding result was “binds”.

B7: Ribosomal RNA-processing protein 8 (protein, UniProt O43159 1-456)
chain: MFEEPEWAEAAPVAAGLGPVISRPPPAASSQNKGSKRRQLLATLRALEAASLSQHPPSLCISDSEEEEEERKKKCPKKASFASASAEVGKKGKKKCQKQGPPCSDSEEEVERKKKCHKQALVGSDSAEDEKRKRKCQKHAPINSAQHLDNVDQTGPKAWKGSTTNDPPKQSPGSTSPKPPHTLSRKQWRNRQKNKRRCKNKFQPPQVPDQAPAEAPTEKTEVSPVPRTDSHEARAGALRARMAQRLDGARFRYLNEQLYSGPSSAAQRLFQEDPEAFLLYHRGFQSQVKKWPLQPVDRIARDLRQRPASLVVADFGCGDCRLASSIRNPVHCFDLASLDPRVTVCDMAQVPLEDESVDVAVFCLSLMGTNIRDFLEEANRVLKPGGLLKVAEVSSRFEDVRTFLRAVTKLGFKIVSKDLTNSHFFLFDFQKTGPPLVGPKAQLSGLQLQPCLYKRR
With B7, the binding result is given as “binds”.

B8: Ribosomal RNA processing protein 1 homolog B (protein, UniProt Q14684 1-758)
chain: MAPAMQPAEIQFAQRLASSEKGIRDRAVKKLRQYISVKTQRETGGFSQEELLKIWKGLFYCMWVQDEPLLQEELANTIAQLVHAVNNSAAQHLFIQTFWQTMNREWKGIDRLRLDKYYMLIRLVLRQSFEVLKRNGWEESRIKVFLDVLMKEVLCPESQSPNGVRFHFIDIYLDELSKVGGKELLADQNLKFIDPFCKIAAKTKDHTLVQTIARGVFEAIVDQSPFVPEETMEEQKTKVGDGDLSAEEIPENEVSLRRAVSKKKTALGKNHSRKDGLSDERGRDDCGTFEDTGPLLQFDYKAVADRLLEMTSRKNTPHFNRKRLSKLIKKFQDLSEGSSISQLSFAEDISADEDDQILSQGKHKKKGNKLLEKTNLEKEKGSRVFCVEEEDSESSLQKRRRKKKKKHHLQPENPGPGGAAPSLEQNRGREPEASGLKALKARVAEPGAEATSSTGEESGSEHPPAVPMHNKRKRPRKKSPRAHREMLESAVLPPEDMSQSGPSGSHPQGPRGSPTGGAQLLKRKRKLGVVPVNGSGLSTPAWPPLQQEGPPTGPAEGANSHTTLPQRRRLQKKKAGPGSLELCGLPSQKTASLKKRKKMRVMSNLVEHNGVLESEAGQPQALGSSGTCSSLKKQKLRAESDFVKFDTPFLPKPLFFRRAKSSTATHPPGPAVQLNKTPSSSKKVTFGLNRNMTAEFKKTDKSILVSPTGPSRVAFDPEQKPLHGVLKTPTSSPASSPLVAKKPLTTTPRRRPRAMDFF
Take B8: the binding result is reported as “binds”.
